According to patent publication US20060292157A1:
No constants are given. Whether binding was seen depends on the method and setting. In cells and extracts the contact can be indirect. Some results given as binding are weak or reduced against the parent protein; the word gives no strength.

Protein sequences, listed by entry. Tags and fused reporters are not part of them. Lines headed by an entry give the natural chain unless they say otherwise; changes in a name come on top. Residues count along the entry.
UniProt P11021, residues 19-654: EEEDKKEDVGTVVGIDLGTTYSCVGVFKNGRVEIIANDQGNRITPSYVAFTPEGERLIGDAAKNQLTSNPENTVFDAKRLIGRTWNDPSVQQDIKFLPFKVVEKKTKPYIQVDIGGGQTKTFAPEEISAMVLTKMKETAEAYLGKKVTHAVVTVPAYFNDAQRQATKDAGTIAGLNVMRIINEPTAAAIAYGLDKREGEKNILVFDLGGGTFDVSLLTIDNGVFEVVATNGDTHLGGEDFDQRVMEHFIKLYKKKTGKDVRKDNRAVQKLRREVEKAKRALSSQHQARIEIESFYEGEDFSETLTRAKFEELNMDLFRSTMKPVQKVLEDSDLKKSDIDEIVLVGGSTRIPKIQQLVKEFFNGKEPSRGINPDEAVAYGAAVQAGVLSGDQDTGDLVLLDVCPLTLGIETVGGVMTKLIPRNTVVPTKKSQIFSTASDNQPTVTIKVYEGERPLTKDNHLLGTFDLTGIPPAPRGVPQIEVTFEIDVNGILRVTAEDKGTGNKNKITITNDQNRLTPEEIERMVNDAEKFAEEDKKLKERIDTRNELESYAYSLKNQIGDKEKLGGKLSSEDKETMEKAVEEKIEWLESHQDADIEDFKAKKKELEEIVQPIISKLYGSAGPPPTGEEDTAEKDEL
UniProt Q13007: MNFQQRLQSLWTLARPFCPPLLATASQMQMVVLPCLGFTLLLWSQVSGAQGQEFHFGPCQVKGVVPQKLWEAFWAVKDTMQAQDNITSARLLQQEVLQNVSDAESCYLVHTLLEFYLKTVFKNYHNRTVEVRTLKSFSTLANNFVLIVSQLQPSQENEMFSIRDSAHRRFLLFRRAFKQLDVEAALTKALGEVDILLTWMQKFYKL

Assays:
[1] = target: BiP/GRP78 (endogenous) (human (endogenous in human HeLa cells)) (UniProt P11021); test: co-IP with BiP/GRP78 antibodies after adenovirus transduction
[2] = target: BiP/GRP78 (endogenous) (human (endogenous in human HeLa cells)) (UniProt P11021); test: summary of the co-IP experiments of Example 2
[3] = target: BiP/GRP78 (endogenous) (human (endogenous in human HeLa cells)) (UniProt P11021); test: co-IP with BiP/GRP78 antibodies, HeLa cells infected with Ad.M4 (FIG. 11A)

Measured: binding

M4 (MDA-7/IL-24 deletion mutant, amino acids 104-206, untagged) (from UniProt Q13007 104-206)
binds: all assays above
